These are yes or no findings as the source states them, for the method shown. Some binding calls cover weakened binding; strength is not graded here.
Key:
[1] = target: T1, purified recombinant C35 protein generated in E. coli (human) (UniProt Q9BRT3); assay: Western blot, 100 ng recombinant C35 per lane, hybridoma supernatant
T1 sequence: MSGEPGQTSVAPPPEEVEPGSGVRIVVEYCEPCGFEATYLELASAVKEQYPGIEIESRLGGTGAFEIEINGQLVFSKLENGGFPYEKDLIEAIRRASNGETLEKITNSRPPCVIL

[2] = target: T1, purified recombinant C35 protein generated in E. coli (human); assay: ELISA, hybridoma supernatant on coated C35 protein, anti-mouse HRP
[3] = target: T1, purified recombinant C35 protein generated in E. coli (human); assay: Western blot, hybridoma supernatant
[4] = target: T1, purified recombinant C35 protein generated in E. coli (human); assay: ELISA and Western blot
[5] = target: T2, C35 protein, bacterially synthesized (recombinant human C35 purified from E. coli) (human) (UniProt Q9BRT3); assay: ELISA screen of hybridoma supernatants on plates coated with C35 protein
T2 sequence: T1 sequence

[6] = target: T2, C35 protein, bacterially synthesized (recombinant human C35 purified from E. coli) (human); assay: Western blot of purified recombinant C35 protein

Measured: binding

B1: 1B3 monoclonal antibody (antibody, mouse IgG1, V domains shown)
VH: EVQLQESGPSLVKPSQTLSLTCSVTGDSITSGYWNWIRKFPGNKLEYVGYISYSGGTYYNPSLKSRISITRDTSKNHYYLQLNSVTTEDTATYYCARGAYYGGAFFPYFDVWGAGTTVTVSS
VL: DVQITQSPSFLAASPGETITINCRASKYISKHLVWYQEKPGETKKLLIYSGSTLQSGLPSRFSGSGSGTDFTLTISSLEPEDFAMYYCQQHNEYPLTFGAGTKLELK
notes: Mouse IgG1, tested as hybridoma supernatant
binds: [1] | [2] | [3] | [4]

B2: 3E10 monoclonal antibody (antibody, V domains shown)
VH: B1 VH
VL: B1 VL
binds: [1] | [2] | [3] | [4]

B3: monoclonal antibody of hybridoma clone 1B3 (antibody, mouse IgG1, V domains shown)
VH: B1 VH
VL: B1 VL
binds: [5] | [6]

B4: monoclonal antibody of hybridoma clone 3E10 (antibody, V domains shown)
VH: B1 VH
VL: B1 VL
binds: [5] | [6]

Reference: US20040063907A1 (published 2004)
